Substitutions are numbered along the chain they refer to. Numbers in names are those of the source. No constants are given. Whether binding was seen depends on the method and setting. Binding seen in cells or lysates may run through a third protein. Some entries that bind do so weakly or less than the wild type. Tags and fused reporters may be left off the sequences shown.

The chains behind the UniProt entries cited, without tags or fusion partners.
UniProt Q6XZF7: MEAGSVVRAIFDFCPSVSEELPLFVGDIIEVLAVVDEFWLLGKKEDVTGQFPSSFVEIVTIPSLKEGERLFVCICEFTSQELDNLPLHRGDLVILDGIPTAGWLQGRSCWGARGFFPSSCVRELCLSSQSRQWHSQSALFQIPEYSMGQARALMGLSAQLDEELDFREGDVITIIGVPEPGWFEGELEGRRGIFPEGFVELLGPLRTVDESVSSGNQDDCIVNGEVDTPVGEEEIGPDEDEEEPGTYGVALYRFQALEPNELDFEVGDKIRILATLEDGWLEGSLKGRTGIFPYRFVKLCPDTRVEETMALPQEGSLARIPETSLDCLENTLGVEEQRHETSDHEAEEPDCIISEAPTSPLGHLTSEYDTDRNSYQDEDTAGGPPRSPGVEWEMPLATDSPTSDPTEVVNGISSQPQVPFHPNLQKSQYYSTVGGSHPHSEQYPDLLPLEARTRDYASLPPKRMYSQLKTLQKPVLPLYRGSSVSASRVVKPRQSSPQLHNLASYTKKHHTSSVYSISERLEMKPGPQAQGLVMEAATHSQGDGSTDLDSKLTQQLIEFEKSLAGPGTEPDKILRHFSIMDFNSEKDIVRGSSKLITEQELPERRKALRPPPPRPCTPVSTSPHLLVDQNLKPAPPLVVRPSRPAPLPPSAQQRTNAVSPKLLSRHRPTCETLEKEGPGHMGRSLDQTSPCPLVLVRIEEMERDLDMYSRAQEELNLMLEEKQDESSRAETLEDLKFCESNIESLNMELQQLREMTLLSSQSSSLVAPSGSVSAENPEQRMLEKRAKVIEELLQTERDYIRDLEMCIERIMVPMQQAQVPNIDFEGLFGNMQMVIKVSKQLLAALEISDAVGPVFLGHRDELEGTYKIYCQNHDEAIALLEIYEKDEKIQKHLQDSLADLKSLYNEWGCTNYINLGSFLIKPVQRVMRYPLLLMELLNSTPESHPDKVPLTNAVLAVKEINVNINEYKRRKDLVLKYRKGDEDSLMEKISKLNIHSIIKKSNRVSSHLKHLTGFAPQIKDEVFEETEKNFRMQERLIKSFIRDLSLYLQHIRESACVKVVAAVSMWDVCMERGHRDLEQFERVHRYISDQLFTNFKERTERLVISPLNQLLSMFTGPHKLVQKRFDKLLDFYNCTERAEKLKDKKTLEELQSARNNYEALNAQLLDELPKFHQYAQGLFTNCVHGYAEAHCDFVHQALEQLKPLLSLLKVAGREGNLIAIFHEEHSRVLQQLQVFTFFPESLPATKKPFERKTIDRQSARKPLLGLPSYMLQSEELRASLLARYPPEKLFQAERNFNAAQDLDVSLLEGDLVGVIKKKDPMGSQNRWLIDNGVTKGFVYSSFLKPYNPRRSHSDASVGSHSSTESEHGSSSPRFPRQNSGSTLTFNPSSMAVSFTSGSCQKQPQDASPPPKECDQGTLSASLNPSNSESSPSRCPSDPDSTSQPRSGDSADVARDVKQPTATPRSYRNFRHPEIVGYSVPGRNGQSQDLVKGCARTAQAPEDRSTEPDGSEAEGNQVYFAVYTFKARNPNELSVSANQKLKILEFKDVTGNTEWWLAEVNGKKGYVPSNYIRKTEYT

Test [1] addresses YFP-Tuba (UniProt Q6XZF7). The test can be described thus: co-IP; YFP-Tuba captured on agarose beads coupled to GFP-binding protein (GBP) from cleared lysate of transfected HEK293T cells, 1 h at 4°C; 1% Nonidet P-40 substitute, 10% glycerol, 50 mM Tris-HCl pH 7.4, 2.0 mM MgCl2, 200 mM NaCl; without HA-Cdc42(G12V).
The target in test [2] is YFP-Tuba (UniProt Q6XZF7). The test can be described thus: co-IP; YFP-Tuba captured on agarose beads coupled to GFP-binding protein (GBP) from cleared lysate of transfected HEK293T cells, 1 h at 4°C; 1% Nonidet P-40 substitute, 10% glycerol, 50 mM Tris-HCl pH 7.4, 2.0 mM MgCl2, 200 mM NaCl; V5-Par6A (WT or mutant), HA-Cdc42(G12V) and YFP-Tuba co-expressed.

B1: V5-Par6A (wild type) (protein, UniProt Q9NPB6 1-346)
chain: MARPQRTPARSPDSIVEVKSKFDAEFRRFALPRASVSGFQEFSRLLRAVHQIPGLDVLLGYTDAHGDLLPLTNDDSLHRALASGPPPLRLLVQKRAEADSSGLAFASNSLQRRKKGLLLRPVAPLRTRPPLLISLPQDFRQVSSVIDVDLLPETHRRVRLHKHGSDRPLGFYIRDGMSVRVAPQGLERVPGIFISRLVRGGLAESTGLLAVSDEILEVNGIEVAGKTLDQVTDMMVANSHNLIVTVKPANQRNNVVRGASGRLTGPPSAGPGPAEPDSDDDSSDLVIENRQPPSSNGLSQGPPCWDLHPGCRHPGTRSSLPSLDDQEQASSGWGSRIRGDGSGFSL
As to B1, the binding entry in the test with YFP-Tuba [1] is recorded as “binds weakly”; with YFP-Tuba [2], “binds”.

B2: V5-Par6A(I133A,S134A) (protein, UniProt Q9NPB6 1-346)
chain: B1 chain with I133A, S134A
On to B2, for which, in the test with YFP-Tuba [2], the binding result is on record as “binds weakly”.

B3: V5-Par6A(ΔCRIB) (protein, UniProt Q9NPB6)
chain: MARPQRTPARSPDSIVEVKSKFDAEFRRFALPRASVSGFQEFSRLLRAVHQIPGLDVLLGYTDAHGDLLPLTNDDSLHRALASGPPPLRLLVQKRAEADSSGLAFASNSLQRRKKGLLLRPVAPLRTRPPLLIPETHRRVRLHKHGSDRPLGFYIRDGMSVRVAPQGLERVPGIFISRLVRGGLAESTGLLAVSDEILEVNGIEVAGKTLDQVTDMMVANSHNLIVTVKPANQRNNVVRGASGRLTGPPSAGPGPAEPDSDDDSSDLVIENRQPPSSNGLSQGPPCWDLHPGCRHPGTRSSLPSLDDQEQASSGWGSRIRGDGSGFSL
Turning to B3, the binding result with YFP-Tuba [2] is “binds weakly”.

Values taken from article PMC6224091.
